Measured values taken from PubChem BioAssay AID2685 (National Center for Advancing Translational Sciences (NCATS), 2010).
The list shows a part of the results. These are further read-outs of the screen, such as a control signal, another cell line or another target. No call is given for them. Compounds called inactive in the main read-out are mostly missing here. Potencies come from curve fits of mixed quality, noted in brackets.

Experiment: qHTS Assay for Lipid Storage Modulators in Drosophila S3 Cells;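 on cell number change: cells counted by Cell Tracker Red CMTPX staining in the red channel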
Conditions: BODIPY lipid droplet fluorescence, 18-24 h; for cell number change: measured here: cell count max response, cells fed with added oleic acid
In short: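 Drosophila S3 cells loaded with oleic acid (400 uM, as added) and compounds at several concentrations; lipid droplets imaged by 488-nm laser-scanning cytometry, 500–530 nm intensity and object ratio to cell channel. Percent activity normalized to 20 uM Triacsin C.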

[1] = measured here: cell number channel AC50, cells fed with added oleic acid
[2] = measured here: lipid fluorescence (Fed channel) AC50, cells fed with added oleic acid

Compound | cell number change [%] | AC50 [1] | AC50 [2]
CCOC(=O)C1CCCCN1C(=O)c1ccc2nc(Cc3ccc(OC)cc3)oc2c1 (configuration not stated) | -39.6 | 6.51 µM [falling, partial curve] | 29.1 µM [falling, partial curve, poor fit]
O=C(CNC(=O)c1ccc(Br)o1)NNC(=O)c1ccccc1 | 2.09 | 1.46 µM [falling, partial curve] | 1.46 µM [falling, partial curve]
COc1ccc(NC(=O)N2CCC(C(=O)c3ccc4c(c3)OCCO4)CC2)cc1 |  |  | 16.4 µM [rising, partial curve]
COC(OC)c1ccnc(-c2ccc(OC(=O)c3cccs3)cc2)n1 | -10.1 | 0.731 µM [falling, single point] | 
O=C(CS(=O)(=O)Cc1ccccc1)NCc1ccccc1Cl | 14.6 |  | 23.1 µM [rising, single point]
COc1ccccc1C(=O)Nc1ccccc1SC(=O)c1ccccc1OC | -17.6 |  | 16.4 µM [falling, single point]
CCc1nc2ccccc2c(=O)n1NC(=O)c1c(O)c2cccc3c2n(c1=O)CCC3 | 7.46 |  | 1.64 µM [falling, full curve]
O=C(NCc1cccnc1)c1sc2cc(Cl)ccc2c1Cl | -34.1 |  | 
CC(C)(C)OC(=O)N1CCC(c2c(C(=O)NC3CC3)cnn2-c2ccccc2)CC1 | -6.11 |  | 29.1 µM [rising, single point]
N#Cc1c(N)nc2c(c1N)CC(=O)N2c1ccc(Cl)cc1 |  | 0.0517 µM [rising, full curve] | 0.092 µM [rising, full curve]
CC(C(=O)O)n1c2ccccc2c2cnn(C)c(=O)c21 (configuration not stated) | 6.31 | 0.00461 µM [falling, full curve, poor fit] | 6.51 µM [falling, single point]
CCN(C(=O)CCS(=O)(=O)c1ccc(Br)cc1)c1ccc2c(c1)OCO2 | -7.51 |  | 0.731 µM [rising, partial curve]
O=C(COC(=O)/C=C/c1ccccc1[N+](=O)[O-])NC1CC1 | -27 |  | 29.1 µM [falling, single point]
O=C(c1ccc(Cl)cc1)C1CCN(Cc2ccccc2)CC1 | 12.6 |  | 3.66 µM [rising, full curve]
C[C@H](C(=O)C=[N+]=[N-])N1C(=O)c2ccccc2C1=O | 6.1 |  | 
O=C(N/N=C/c1ccc(Br)cc1)c1cc[n+]([O-])cc1 | 48 | 16.4 µM [rising, partial curve, poor fit] | 13 µM [rising, partial curve]
Cn1c(=O)c2c(nc(NCCNC(=O)c3ccco3)n2Cc2ccccc2F)n(C)c1=O | -2.86 |  | 29.1 µM [falling, single point]
O=C(Nc1ccccn1)C1CCCN1S(=O)(=O)c1ccc(Cl)cc1 (configuration not stated) | 3.38 |  | 29.1 µM [rising, single point]
Cc1ccc2oc(C(=O)N3CCC(O)(c4ccccc4)CC3)c(C)c2c1 | 8.29 |  | 

Compound | cell number change [%] | AC50 [1] | AC50 [2]
COc1cc(NC(=O)COn2nnc3ccc(S(C)(=O)=O)cc32)cc(OC)c1 | -30.8 | 32.6 µM [falling, single point] | 18.4 µM [falling, partial curve]
CC(C)c1ccc(NC(=S)Nc2ccc(OC(F)(F)F)cc2)cc1 | 12 |  | 31.6 µM [rising, single point]
COc1cc(NC(=O)CCN2CCOCC2)cc(OC)c1 | 30.5 |  | 0.58 µM [falling, single point]
Cc1ccc(-c2noc(CCC(=O)NCCCN3CCN(c4cccc(Cl)c4)CC3)n2)cc1 | -14.8 | 7.31 µM [falling, partial curve, poor fit] | 13 µM [falling, partial curve]
O=C(CCN1C(=O)COc2ccccc21)NCCN1CCOCC1 | 1.56 |  | 25.9 µM [falling, single point]
C/C(CC(=O)NCCc1ccccc1)=N\NC(=O)COc1ccc(Br)cc1 | 17.9 |  | 5.8 µM [falling, full curve]
Cc1cc(=O)oc2cc(NC(=O)COc3ccccc3[N+](=O)[O-])ccc12 | -23.5 | 3.66 µM [falling, full curve, poor fit] | 6.51 µM [falling, single point]
COC(=O)COc1ccc(S(=O)(=O)NCc2ccc3c(c2)OCO3)cc1C | 18.1 |  | 6.51 µM [falling, partial curve, poor fit]
Cc1ccccc1NC(=O)COC(=O)CCc1ccccc1 | 17.2 |  | 3.66 µM [falling, single point]
COc1ccc(C(=O)Nc2cccc3cccnc23)cc1OC | 33.9 | 0.259 µM [rising, full curve] | 2.91 µM [rising, full curve]
COC(=O)CSc1cc([N+](=O)[O-])ccc1NC(=O)OC | 27.7 |  | 0.0058 µM [rising, full curve, poor fit]
CCc1ccc(NC(=O)C2CCN(S(C)(=O)=O)CC2)cc1 |  | 6.51 µM [rising, single point] | 
O=C(CS(=O)(=O)c1ccc(F)cc1)NCc1ccccc1 | 0.129 |  | 6.51 µM [rising, single point]
Cc1[nH][nH]c(=O)c1C(c1ccc(Br)cc1)c1c(C)[nH][nH]c1=O | -5.25 |  | 29.1 µM [rising, single point]
COc1ccc(N(Cc2cc3ccccc3[nH]c2=O)S(=O)(=O)c2ccc(OC)cc2)cc1 | -31.9 | 13 µM [falling, single point] | 25.9 µM [falling, single point]
O=C(Nc1cccc(S(=O)(=O)N2CCOCC2)c1)c1ccccc1[N+](=O)[O-] | 40 | 23.1 µM [rising, partial curve, poor fit] | 18.4 µM [rising, partial curve, poor fit]
COc1ccccc1CNC(=O)COC(=O)c1ccccc1-c1ccccc1 |  | 1.64 µM [rising, partial curve] | 
O=C(NCc1ccc(Cl)cc1)c1ccc(-n2cccn2)nc1 | 35.3 |  | 
N#CC(C(=O)CCN1C(=O)C2CC=CCC2C1=O)c1nc2ccccc2[nH]1 (configuration not stated) |  |  | 4.11 µM [rising, partial curve]

Compound | cell number change [%] | AC50 [1] | AC50 [2]
COc1ccc(NC(=O)COC(=O)CC23CC4CC(CC(C4)C2)C3)c([N+](=O)[O-])c1 | -56.7 | 25.9 µM [falling, partial curve] | 9.2 µM [falling, partial curve]
CCSc1nc2ccccc2c(=O)n1Cc1ccc(F)cc1 | 4.62 |  | 6.51 µM [falling, single point]
Brc1ccc(N=C(c2ccccc2)c2ccncc2)cc1 | 21.7 | 0.0291 µM [rising, partial curve, poor fit] | 
Cc1c(C(=O)O)cccc1-c1ccc(/C=C2\SC(=O)NC2=O)o1 | -17.5 |  | 
Cc1c(NC(=O)CN2C(=O)NC3(CCCCC3C)C2=O)cccc1[N+](=O)[O-] (configuration not stated) | -2.63 |  | 7.31 µM [falling, partial curve, poor fit]
CC(C)(C)c1ccc(NC(=O)COC(=O)CCN2C(=O)c3cccc([N+](=O)[O-])c3C2=O)cc1 | 5.94 |  | 29.1 µM [rising, single point]
CC(=O)CSc1nnc2cc(C)c3ccccc3n12 |  | 0.651 µM [rising, full curve] | 0.82 µM [rising, full curve]
Cc1ccc2oc(C(=O)NCC(c3ccco3)N3CCCC3)c(C)c2c1 (configuration not stated) | 34.2 | 4.11 µM [rising, full curve, poor fit] | 29.1 µM [rising, single point]
O=C(COC(=O)c1cccc(-n2cnnn2)c1)c1ccc(Br)cc1 |  | 0.58 µM [falling, single point] | 0.146 µM [falling, full curve, poor fit]
CCOC(=O)C1=C(N)Oc2cc(O)ccc2C1c1ccc(Br)cc1 (configuration not stated) | 0.971 |  | 
CCOC(=O)C1=C(C)N(C)C(=O)NC1c1c(OC)ccc2ccccc12 (configuration not stated) | -33.9 | 5.17 µM [falling, single point] | 
Cc1nnc(SCC(=O)Nc2ccc(Cl)cn2)n1Cc1ccccc1 | 0.204 |  | 0.731 µM [rising, full curve]
Cc1ccccc1/C=c1\s/c(=C\C(=O)C(C)(C)C)[nH]c1=O | -108 | 29.1 µM [falling, single point] | 
COc1ccccc1N1CCN(CC(=O)c2c(C)n(C)c3ccccc23)CC1 | -0.646 |  | 29.1 µM [rising, single point]
CC(=O)Nc1ccc(NC(=O)CNC(=O)c2cccc(C)c2)cc1 | 4.78 |  | 18.4 µM [rising, partial curve]
COc1ccc(C(=O)Nc2ccc3nc(N4CCN(C)CC4)cc(C)c3c2)c(OC)c1 | 29.8 | 0.82 µM [rising, full curve] | 
CN1/C(=C\C(=O)COC(=O)C2COc3ccccc3O2)C(C)(C)c2ccccc21 (configuration not stated) | -46.8 | 1.03 µM [falling, full curve] | 2.31 µM [falling, full curve]
O=C1CCC(C(=O)OCc2c(Cl)cccc2Cl)N1 (configuration not stated) | -40.2 | 20.6 µM [falling, single point] | 23.1 µM [falling, single point]
CCN(CC)CCCN(Cc1cc2cc3c(cc2[nH]c1=O)OCO3)C(=S)NCCCOC | -10.8 |  | 

3 structures from above, arranged by count of non-hydrogen atoms, descending.
Compound | cell number change [%] | AC50 [1] | AC50 [2]
Cc1ccc2oc(C(=O)NCC(c3ccco3)N3CCCC3)c(C)c2c1 (configuration not stated) | 34.2 | 4.11 µM [rising, full curve, poor fit] | 29.1 µM [rising, single point]
CCOC(=O)C1=C(N)Oc2cc(O)ccc2C1c1ccc(Br)cc1 (configuration not stated) | 0.971 |  | 
Cc1c(C(=O)O)cccc1-c1ccc(/C=C2\SC(=O)NC2=O)o1 | -17.5 |  | 
